Results taken from US20140162950A1.
These are yes or no findings as the source states them, for the method shown. In cells and extracts the contact can be indirect. Some binding calls cover weakened binding; strength is not graded here.

Amino acid sequences for entries named in this document (tags omitted). A change or cut given only in a name is not applied to a line headed by its entry.
UniProt P05556: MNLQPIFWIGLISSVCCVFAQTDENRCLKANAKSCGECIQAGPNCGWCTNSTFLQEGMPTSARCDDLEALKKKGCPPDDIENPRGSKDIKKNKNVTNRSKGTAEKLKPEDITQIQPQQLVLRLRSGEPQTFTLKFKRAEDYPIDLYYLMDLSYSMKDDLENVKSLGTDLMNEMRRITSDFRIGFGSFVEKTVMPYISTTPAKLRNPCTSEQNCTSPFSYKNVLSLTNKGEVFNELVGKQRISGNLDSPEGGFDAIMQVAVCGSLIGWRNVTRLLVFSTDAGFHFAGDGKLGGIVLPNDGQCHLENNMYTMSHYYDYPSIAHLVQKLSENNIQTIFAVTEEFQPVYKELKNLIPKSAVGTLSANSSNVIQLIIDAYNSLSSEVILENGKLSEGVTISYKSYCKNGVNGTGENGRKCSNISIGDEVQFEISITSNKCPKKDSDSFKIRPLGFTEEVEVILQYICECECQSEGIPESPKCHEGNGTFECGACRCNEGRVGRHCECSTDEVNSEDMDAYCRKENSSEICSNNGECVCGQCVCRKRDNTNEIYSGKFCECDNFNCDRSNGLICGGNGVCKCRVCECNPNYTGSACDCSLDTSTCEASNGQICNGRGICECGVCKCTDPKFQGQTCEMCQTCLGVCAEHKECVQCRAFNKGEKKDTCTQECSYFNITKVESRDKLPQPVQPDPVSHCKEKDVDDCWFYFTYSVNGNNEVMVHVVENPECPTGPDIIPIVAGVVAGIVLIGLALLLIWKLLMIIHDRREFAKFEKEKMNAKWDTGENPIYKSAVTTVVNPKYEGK
UniProt P29279: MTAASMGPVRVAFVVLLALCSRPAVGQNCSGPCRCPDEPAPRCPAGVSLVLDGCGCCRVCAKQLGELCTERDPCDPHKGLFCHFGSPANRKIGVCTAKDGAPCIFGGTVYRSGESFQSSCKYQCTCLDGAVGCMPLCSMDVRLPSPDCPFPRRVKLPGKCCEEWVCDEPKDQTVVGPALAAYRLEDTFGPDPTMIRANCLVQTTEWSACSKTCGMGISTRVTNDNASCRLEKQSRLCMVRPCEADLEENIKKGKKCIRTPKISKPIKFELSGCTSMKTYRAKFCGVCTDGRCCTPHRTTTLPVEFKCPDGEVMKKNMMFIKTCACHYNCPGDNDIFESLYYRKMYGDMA

Legend:
[1] = target: T1, integrin α3β1 on gastric cancer cells (MKN45, MKN45/CTGF, AGS) (human) (UniProt P26006+P05556); experiment: co-immunoprecipitation
[2] = target: T1, integrin α3β1 on gastric cancer cells (MKN45, MKN45/CTGF, AGS) (human); experiment: conclusion from co-immunoprecipitation and adhesion blocking assays
[3] = target: T2, integrin α3 subunit (endogenous, from MKN45/CTGF total cell lysate) (human) (UniProt P26006); experiment: co-immunoprecipitation: IP with integrin α3 antibody, detection with CTGF antibody
T2 sequence (looked up): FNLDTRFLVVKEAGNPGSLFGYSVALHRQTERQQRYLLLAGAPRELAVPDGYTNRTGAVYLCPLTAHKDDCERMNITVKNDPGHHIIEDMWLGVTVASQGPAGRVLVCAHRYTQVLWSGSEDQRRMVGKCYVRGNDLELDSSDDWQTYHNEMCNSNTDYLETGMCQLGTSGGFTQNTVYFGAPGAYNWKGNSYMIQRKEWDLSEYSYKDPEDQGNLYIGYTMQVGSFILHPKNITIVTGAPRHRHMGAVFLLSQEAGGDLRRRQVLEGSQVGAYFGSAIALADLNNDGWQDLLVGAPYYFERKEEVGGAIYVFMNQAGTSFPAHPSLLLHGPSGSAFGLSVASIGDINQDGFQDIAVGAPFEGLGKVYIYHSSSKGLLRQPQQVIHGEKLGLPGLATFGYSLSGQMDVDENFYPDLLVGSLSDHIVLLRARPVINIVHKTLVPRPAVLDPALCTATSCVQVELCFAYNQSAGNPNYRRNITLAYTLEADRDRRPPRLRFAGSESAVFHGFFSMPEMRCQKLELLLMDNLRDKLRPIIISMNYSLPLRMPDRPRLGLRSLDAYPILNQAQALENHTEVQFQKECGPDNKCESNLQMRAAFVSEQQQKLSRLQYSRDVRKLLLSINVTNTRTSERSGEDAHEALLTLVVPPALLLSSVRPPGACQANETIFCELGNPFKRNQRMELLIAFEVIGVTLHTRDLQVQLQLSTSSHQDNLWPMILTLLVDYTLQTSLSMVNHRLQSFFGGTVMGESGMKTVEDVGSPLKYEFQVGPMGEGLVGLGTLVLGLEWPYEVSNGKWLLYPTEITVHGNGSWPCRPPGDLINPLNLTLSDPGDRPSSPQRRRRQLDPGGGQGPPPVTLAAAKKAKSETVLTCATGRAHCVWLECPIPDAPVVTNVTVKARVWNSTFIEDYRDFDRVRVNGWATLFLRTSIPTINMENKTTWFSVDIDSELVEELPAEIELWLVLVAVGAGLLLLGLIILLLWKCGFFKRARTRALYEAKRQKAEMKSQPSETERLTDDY

[4] = target: T2, integrin α3 subunit (endogenous, from MKN45/CTGF total cell lysate) (human); experiment: co-immunoprecipitation from MKN45/CTGF total cell lysate with anti-integrin α3 monoclonal antibody, western blot with anti-CTGF polyclonal antibody

Measured: binding

connective tissue growth factor (CTGF) native protein, over-expressed from full-length cDNA in MKN45/CTGF cells (from UniProt P29279 27-349) (ligand)
binds: all assays above
